Assay results published in PubChem BioAssay AID504467 (National Center for Advancing Translational Sciences (NCATS), 2011).
About 7,700 (2.3%) of roughly 330,000 compounds were called active. This list was built around the results that the source calls inconclusive (neither active nor inactive); the mix of calls is not that of the screen. Calls come from the whole dose curve; as a rule, active = well fitted inhibition curve with a large enough effect; inconclusive = small, poorly fitted or top-dose-only effect, or effect the other way; inactive = flat fitted curve, though single readings scatter. Potencies of inconclusive entries are doubtful fits and often do not repeat.

assay: qHTS screen for small molecules that inhibit ELG1-dependent DNA repair in human embryonic kidney (HEK293T) cells expressing luciferase-tagged ELG1; conditions: HEK293T ELG1-luciferase reporter, luminescence, 16 h, DNA damage induced by 5-fluorouridine; series mostly up to 46.1 µM; note: nearly all actives have a fitted effect of over 55% in size
Summary of the method: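 Luminescence from the luciferase reporter, measured 30 min after ONE-Glo reagent at room temperature, was the read-out. Beforehand, 2,000 cells per well were exposed for 16 hr at 37 °C to 5-fluorouridine together with compound or vehicle.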
Potency is the fitted concentration of half-maximal effect.

| SMILES | Potency |
| --- | --- |
| OCCCn1c(CCCNc2nc(-c3cccc(Br)c3)cs2)nc2cc(Cl)c(N3CCCCC3)cc21 | inactive |
| CCc1cccc(NC(=O)CCCN2C(=O)C(c3ccccc3)Oc3cccnc32)c1 (configuration not stated) | inactive |
| Cc1ccc(/C(=N\O)c2oc3c(C)c4oc(=O)cc(C)c4cc3c2C)cc1 | active: 20.6 µM |
| COC(=O)CS(=O)(=O)c1cccc2cccnc12 | inactive |
| COc1ccc(-c2cc(-c3nnc(COC(=O)c4ccc(O)cc4)o3)c3ccccc3n2)cc1OC | inconclusive: 14.6 µM [inhibitor, partial curve] |
| O=C(NC(=S)Nc1ccc(CN2CCCCC2)cc1)c1cccc(OCc2ccccc2)c1 | inconclusive: 29.1 µM [inhibitor, single point] |
| CN(C(=O)c1ccc(NC(=O)c2ccco2)cc1)c1ccccc1 | inconclusive: 23.1 µM [activator, partial curve] |
| COc1ccc(Cl)cc1-c1n[nH]c(=S)n1Cc1ccccc1 | inactive |
| O=C(SCC(O)C(O)CS)c1cccs1 (configuration not stated) | inactive |
| COCCn1c(SC(C(=O)Nc2cc(C)ccc2OC)c2ccccc2)nnc1-c1ccc(Cl)cc1 (configuration not stated) | inconclusive: 29.1 µM [inhibitor, single point] |
| CC(=O)Nc1ccc(C(=O)OCC(=O)N(Cc2ccccc2)C(C)(C)C)cc1 | inactive |
| O=C1[C@@H]2C(Cc3ccc(O)cc3)NC3(C(=O)Nc4ccc(F)cc43)[C@@H]2C(=O)N1c1ccccc1 (some centres not stated) | inconclusive: 18.4 µM [inhibitor, partial curve, poor fit] |
| CCCN(C(=O)Cc1csc(-c2ccccc2)n1)C1CCS(=O)(=O)C1 (configuration not stated) | inactive |
| O=C(NNC(=O)c1cc(Br)ccc1O)c1csc(N2CCOCC2)n1 | inconclusive: 18.3 µM [inhibitor, single point] |
| CCn1nc(C)c(NC(=O)CCCSc2nc(-c3ccco3)cc(C(F)(F)F)n2)c1C | inconclusive: 20.6 µM [inhibitor, partial curve] |
| CC(C)OCC(O)CN (configuration not stated) | inconclusive: 29.1 µM [activator, single point] |
| O=C1CC(SCc2nc3ccccc3[nH]2)C(=O)N1c1ccc(F)cc1 (configuration not stated) | inactive |
| COc1cc(=O)[nH]c(SC(C)C(=O)Nc2cccc3ccccc23)n1 (configuration not stated) | inactive |
| COc1ccc2nc(NC(=O)CSc3nc(C)cc(C)n3)sc2c1 | inconclusive: 16.4 µM [inhibitor, single point] |
| O=C1CCCN1CCCNC(=S)Nc1ccc(Nc2ccccc2)cc1 | active: 14.6 µM |
| CCC(=O)Nc1cccc(NC(=S)NC(=O)Cc2ccccc2)c1 | inconclusive: 13 µM [inhibitor, partial curve] |
| CCOC(=O)N1N=C(c2ccccc2)CC1(O)C(F)(F)F (configuration not stated) | inconclusive: 16.4 µM [activator, partial curve] |
| CC(C)CC(=O)Nc1ccc(N2CCN(C(=O)c3cccs3)CC2)cc1 | inconclusive: 29.1 µM [inhibitor, single point] |
| CCN(CC)C(=O)c1sc(NC(=O)c2ccoc2C)c(C(=O)OC)c1C | inconclusive: 11.2 µM [inhibitor, partial curve, poor fit] |

| SMILES | Potency |
| --- | --- |
| Cn1cccc1C(C#N)(CC#N)c1cccc(F)c1C#N (configuration not stated) | inactive |
| Cc1ccc(CNC(=O)c2ccc(N3CCC4(CC3)CC(c3cccc(Br)c3)=NO4)c(NC(=O)c3ccco3)c2)cc1 | inactive |
| CCOc1ccc(CN2CCCC(CO)(Cc3ccc(F)cc3)C2)cc1 (configuration not stated) | inactive |
| Cc1ccc(-c2cc(C(F)F)n3ncc(C(=O)Nc4c(C)nn(Cc5ccccc5Cl)c4C)c3n2)cc1 | inconclusive: 11.2 µM [inhibitor, partial curve, poor fit] |
| CCOC(=O)C1(Cc2cccc(Cl)c2)CCCN(C(=O)c2cn[nH]c2)C1 (configuration not stated) | inactive |
| COc1ccc(CNC(=S)NCc2ccc(F)cc2)cc1OC | inconclusive: 20.6 µM [inhibitor, partial curve, poor fit] |
| COc1ccc(-c2csc(NC(C)=O)n2)cc1OC | inconclusive: 29.1 µM [activator, single point] |
| Cc1cc(C)n(-c2nnc(NC(C)(C)C)nn2)n1 | inconclusive: 23.1 µM [activator, partial curve] |
| Cc1cccc(C)c1N=Cc1c(O)n(-c2nccs2)c(=O)c2ccccc12 | inconclusive: 25.9 µM [inhibitor, single point] |
| OCCN(Cc1ccccc1)C(=S)Nc1ccc(F)cc1 | inconclusive: 1.3 µM [activator, single point] |
| Nc1ncc([N+](=O)[O-])c(Oc2ccccc2F)n1 | inactive |
| Cc1ccc(C2(C(F)(F)F)N=C3Sc4cc(C)cc(C)c4N3C(=O)N2)cc1 (configuration not stated) | inconclusive: 14.6 µM [activator, partial curve] |
| O=C(OC1CCOC1=O)c1ccc(Cl)c(S(=O)(=O)N2CCOCC2)c1 (configuration not stated) | inactive |
| CCOc1cc(-c2cc(-c3ccc(OC)cc3)nc(N)c2C#N)ccc1O | inconclusive: 6.51 µM [inhibitor, partial curve] |
| O=c1c2ccccc2oc2ccc(NCCCN3CCOCC3)cc12 | inconclusive: 5.8 µM [activator, partial curve] |
| CNC(=S)N1CCN(c2ccc(Cl)c(Cl)c2)CC1 | inactive |
| CCOc1cc(N2CCOCC2)c(OCC)cc1NC(=O)c1c(C)noc1C | inactive |
| CCCCCCCCCCCCCCCC[N+](C)(C)CC | inactive |
| COc1ccc(S(=O)(=O)Nc2cc(Cl)ccc2OC)cc1 | inconclusive: 3.26 µM [inhibitor, partial curve, poor fit] |
| C=CCn1c(SCc2ccc(Br)cc2F)nc2cc(C(=O)O)ccc2c1=O | inactive |
| Cc1cc(/C=N/NC(=O)c2nn(C)cc2Cl)c(C)n1-c1cccc(Br)c1 | inconclusive: 1.16 µM [activator, single point] |
| COc1ccc(CNCCc2ccc(Cl)cc2)cc1OCc1ccccc1 | active: 14.6 µM |
| NC(=O)CC(NC(=O)c1ccccc1)c1ccc(N2CCN(c3ccccn3)CC2)c([N+](=O)[O-])c1 (configuration not stated) | inconclusive: 29.1 µM [inhibitor, single point] |
